Measurements reported in PubChem BioAssay AID504786 (Drosophila RNAi Screening Center, 2011)
The screen tested about 21,000 reagents; this is an unselected part of those that have a named target and a result. 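Primary screen; positive scores mean lost reporter signal, so the sign may be inverted from the usual convention.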 The numbers tell different reagents against one gene apart. Names joined by + are all predicted targets of the reagent. Not all columns of the deposit are shown.

- Assay: 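Knock-downs reducing HIF reporter induction by the iron chelator DFO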 (primary screen)
- System: Drosophila S2 cells with a stable HIF luciferase reporter
- Reagent: long dsRNA against Drosophila genes, about 0.2 µg dsRNA per well of a 384-well plate
- Time to read-out: three days of knock-down, then 20 h of DFO before reading
- Challenge: desferrioxamine (DFO) at 100 µM, an iron chelator that mimics hypoxia, for 20 h
- Read-out: 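Firefly luciferase driven by the mouse ldh-a hypoxia-response element, measured after 20 h of 100 µM DFO; z-scores per plate, higher means more signal lost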
- Reading the numbers: z-score: higher = stronger loss of HIF reporter signal

Vps16B — z-score, replicate 1 = 0
CG14915 — z-score, replicate 1 = -0.2
CG42565 — z-score, replicate 1 = -0.4
CG14932 — z-score, replicate 1 = -0.1
CheA87a — z-score, replicate 1 = -0.3
Golgin245 — z-score, replicate 1 = -0.2
sr #1 — z-score, replicate 1 = -0.2
sr #2 — z-score, replicate 1 = 1
OstDelta — z-score, replicate 1 = 1.3
Acf — z-score, replicate 1 = 0
CG16959 — z-score, replicate 1 = -0.3
GstE3 — z-score, replicate 1 = -0.3
CG13248 — z-score, replicate 1 = -0.3
Gasz — z-score, replicate 1 = -0.3
CG31337 — z-score, replicate 1 = -0.2
ncm — z-score, replicate 1 = 7.9
Adss — z-score, replicate 1 = -0.1
caz — z-score, replicate 1 = -0.2
Alg3 — z-score, replicate 1 = -0.3
Not3 — z-score, replicate 1 = -0.3
CG1958 — z-score, replicate 1 = -0.3
CG31743 + CG34313 #1 — z-score, replicate 1 = -0.2
CG31743 + CG34313 #2 — z-score, replicate 1 = 0
CG31998 #1 — z-score, replicate 1 = -0.2
CG31998 #2 — z-score, replicate 1 = -0.2
mRpL10 — z-score, replicate 1 = 1.2
Ctps #1 — z-score, replicate 1 = 1.2
Ctps #2 — z-score, replicate 1 = -0.4
Ctps #3 — z-score, replicate 1 = 1.2
Rsph3 #1 — z-score, replicate 1 = -0.3
Rsph3 #2 — z-score, replicate 1 = -0.5
CG30053 — z-score, replicate 1 = -0.4
CG12674 — z-score, replicate 1 = -0.1
CG6984 — z-score, replicate 1 = -0.1
Ucp4C — z-score, replicate 1 = -0.4
CG42319 #1 — z-score, replicate 1 = -0.2
CG42319 #2 — z-score, replicate 1 = -0.3
Eps-15 — z-score, replicate 1 = -0.3
Ddrgk1 — z-score, replicate 1 = -0.3
clumsy — z-score, replicate 1 = 0

4 entries already listed, sorted by “z-score, replicate 1”, high to low.
CG12674 — z-score, replicate 1 = -0.1
Rsph3 #1 — z-score, replicate 1 = -0.3
CG30053 — z-score, replicate 1 = -0.4
Rsph3 #2 — z-score, replicate 1 = -0.5
